# PubChem BioAssay AID1159584, Peter MacCallum Cancer Centre, 2016
# Test: 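Knock-downs that harm CDH1-null cells more than parental MCF10A cells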 (primary screen)
# System: human MCF10A breast epithelial cells, parental and CDH1-null
# Reagents: siRNA against human genes
# Detection: 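Cell viability by CellTiter-Glo ATP luminescence, each line scaled to the mean of mock wells across plates, then CDH1-null over parental ratio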
# Direction: CDH1-null / parental viability ratio: higher = CDH1-null cells survive relatively better than parental; CDH1-null viability vs mock: higher = more viable CDH1-null cells; parental viability vs mock: higher = more viable parental cells
# This is one part, drawn at random, of about 18,000 reagents. No sequences are given here. The record does not give: the amount of reagent, the time to read-out.
CDH1-null / parental viability ratio,CDH1-null viability vs mock (fraction of mock),parental viability vs mock (fraction of mock),target gene
0.79,0.44,0.56,USP51 (GeneID 158880)
0.79,0.62,0.78,LIMD2 (GeneID 80774)
0.82,0.59,0.72,ODF4 (GeneID 146852)
1.14,0.8,0.7,UROD (GeneID 7389)
0.74,0.71,0.96,SRGAP2 (GeneID 23380)
0.9,0.96,1.07,CDC37P1 (GeneID 390688)
0.82,0.54,0.66,AIFM1 (GeneID 9131)
0.85,0.71,0.84,CEACAM16 (GeneID 388551)
1.05,0.86,0.82,ARL11 (GeneID 115761)
0.73,0.64,0.88,MICOS13 (GeneID 125988)
1.42,0.94,0.66,DSG2 (GeneID 1829)
1.14,1,0.88,RGS2 (GeneID 5997)
0.88,0.72,0.82,OAS2 (GeneID 4939)
1.21,1.04,0.86,DMTN (GeneID 2039)
0.97,0.62,0.64,EIF4G1 (GeneID 1981)
0.92,0.66,0.72,ELL3 (GeneID 80237)
0.84,0.58,0.69,WLS (GeneID 79971)
0.82,0.75,0.92,TRIM59 (GeneID 286827)
1.05,0.97,0.92,C3 (GeneID 718)
1.07,0.94,0.88,MROH8 (GeneID 140699)
1.12,0.57,0.51,TPD52L2 (GeneID 7165)
0.92,0.65,0.71,SPECC1L (GeneID 23384)
0.71,0.73,1.03,TAL1 (GeneID 6886)
0.94,1.14,1.21,OR5H6 (GeneID 79295)
1.17,0.98,0.84,CMBL (GeneID 134147)
0.91,0.61,0.67,ERMAP (GeneID 114625)
0.85,0.82,0.96,CORO1A (GeneID 11151)
0.95,0.53,0.56,DOK2 (GeneID 9046)
1.21,0.58,0.48,ABCG4 (GeneID 64137)
0.8,0.86,1.08,GPR149 (GeneID 344758)
0.96,0.76,0.79,CPLX2 (GeneID 10814)
1.36,0.6,0.44,CHERP (GeneID 10523)
1.12,0.96,0.86,LNP1 (GeneID 348801)
0.98,1,1.02,DIO2 (GeneID 1734)
1.09,0.48,0.44,TOP2A (GeneID 7153)
1.07,0.63,0.59,TLR8 (GeneID 51311)
0.96,0.68,0.71,PTN (GeneID 5764)
0.72,0.58,0.81,BCL3 (GeneID 602)
0.44,0.22,0.5,IMPACT (GeneID 55364)
0.74,0.55,0.74,HOXB7 (GeneID 3217)
0.95,0.76,0.8,PPP4R3B (GeneID 57223)

12 neighbouring records from above:
CDH1-null / parental viability ratio,CDH1-null viability vs mock (fraction of mock),parental viability vs mock (fraction of mock),target gene
0.85,0.71,0.84,CEACAM16 (GeneID 388551)
1.05,0.86,0.82,ARL11 (GeneID 115761)
0.73,0.64,0.88,MICOS13 (GeneID 125988)
1.42,0.94,0.66,DSG2 (GeneID 1829)
1.14,1,0.88,RGS2 (GeneID 5997)
0.88,0.72,0.82,OAS2 (GeneID 4939)
1.21,1.04,0.86,DMTN (GeneID 2039)
0.97,0.62,0.64,EIF4G1 (GeneID 1981)
0.92,0.66,0.72,ELL3 (GeneID 80237)
0.84,0.58,0.69,WLS (GeneID 79971)
0.82,0.75,0.92,TRIM59 (GeneID 286827)
1.05,0.97,0.92,C3 (GeneID 718)

The listing continues:
CDH1-null / parental viability ratio,CDH1-null viability vs mock (fraction of mock),parental viability vs mock (fraction of mock),target gene
1.16,1.02,0.88,PHLDA1 (GeneID 22822)
0.92,0.84,0.91,LRCH1 (GeneID 23143)
0.87,0.54,0.62,UBR1 (GeneID 197131)
0.96,0.92,0.96,UGT3A2 (GeneID 167127)
1.28,0.64,0.5,KRTAP5-11 (GeneID 440051)
0.8,0.74,0.93,PIAS1 (GeneID 8554)
1.3,0.57,0.44,SHISA3 (GeneID 152573)
1.18,0.84,0.71,CENPX (GeneID 201254)
1.53,1.04,0.68,CNNM3 (GeneID 26505)
0.9,0.8,0.89,RUNX1T1 (GeneID 862)
0.9,0.92,1.02,CORO6 (GeneID 84940)
1.18,0.9,0.76,OR8B4 (GeneID 283162)
0.93,0.76,0.82,DRC8 (GeneID 84288)
1.07,1.11,1.04,DNAJC14 (GeneID 85406)
0.93,1.13,1.22,FSTL1 (GeneID 11167)
0.98,0.92,0.94,CFHR1 (GeneID 3078)
1.07,0.94,0.88,NDUFB11 (GeneID 54539)
1.13,0.95,0.84,SH2D4B (GeneID 387694)
0.8,0.33,0.41,TMEM14B (GeneID 81853)
0.78,0.39,0.5,DDX19A (GeneID 55308)
0.84,0.38,0.45,NECAP2 (GeneID 55707)
1.03,0.66,0.64,GTPBP6 (GeneID 8225)
0.89,0.84,0.94,ZC3HAV1L (GeneID 92092)
1.06,0.51,0.48,NENF (GeneID 29937)
0.93,0.84,0.9,NEUROD2 (GeneID 4761)
1.08,0.82,0.76,SLAMF9 (GeneID 89886)
1.15,1.08,0.94,H4C1 (GeneID 8359)
0.88,0.76,0.86,KRT16 (GeneID 3868)
1.04,0.94,0.9,PRAMEF8 (GeneID 391002)
0.93,0.65,0.7,LAS1L (GeneID 81887)
0.81,0.68,0.84,MSANTD2 (GeneID 79684)
1.09,0.82,0.75,POLM (GeneID 27434)
1.02,0.97,0.95,PLCH1 (GeneID 23007)
1.55,0.73,0.47,YBEY (GeneID 54059)
1.08,0.55,0.51,C11orf71 (GeneID 54494)
1.07,0.91,0.85,OR4A5 (GeneID 81318)
1.09,0.62,0.57,SCAND3 (GeneID 114821)
0.88,0.72,0.82,CDA (GeneID 978)
1.14,0.96,0.84,CCL13 (GeneID 6357)
1.12,0.92,0.82,SCUBE1 (GeneID 80274)
0.9,0.77,0.86,AOC3 (GeneID 8639)
1.22,0.56,0.46,SLC39A11 (GeneID 201266)
0.74,0.74,1,SLC25A46 (GeneID 91137)
1.24,0.89,0.72,GCC2 (GeneID 9648)
0.92,0.82,0.89,APMAP (GeneID 57136)
1.07,1.01,0.94,PIP4P2 (GeneID 55529)
